Test results from paper doi:10.1101/2025.01.29.635535.
Changes are numbered by the printed parent chain. Results are given in words; binding and its absence hold for the method and conditions named. Some results given as binding are weak or reduced against the parent protein; the word gives no strength. For some of these results: Sequences can lack the tags named with a protein.

Columns and labels:
Experiment in all cases: non-reducing SDS-PAGE and Western blot
HsEDEM3 (human) = biological target: T1, HsEDEM3 (human) (UniProt Q9BZQ6)
T1 sequence: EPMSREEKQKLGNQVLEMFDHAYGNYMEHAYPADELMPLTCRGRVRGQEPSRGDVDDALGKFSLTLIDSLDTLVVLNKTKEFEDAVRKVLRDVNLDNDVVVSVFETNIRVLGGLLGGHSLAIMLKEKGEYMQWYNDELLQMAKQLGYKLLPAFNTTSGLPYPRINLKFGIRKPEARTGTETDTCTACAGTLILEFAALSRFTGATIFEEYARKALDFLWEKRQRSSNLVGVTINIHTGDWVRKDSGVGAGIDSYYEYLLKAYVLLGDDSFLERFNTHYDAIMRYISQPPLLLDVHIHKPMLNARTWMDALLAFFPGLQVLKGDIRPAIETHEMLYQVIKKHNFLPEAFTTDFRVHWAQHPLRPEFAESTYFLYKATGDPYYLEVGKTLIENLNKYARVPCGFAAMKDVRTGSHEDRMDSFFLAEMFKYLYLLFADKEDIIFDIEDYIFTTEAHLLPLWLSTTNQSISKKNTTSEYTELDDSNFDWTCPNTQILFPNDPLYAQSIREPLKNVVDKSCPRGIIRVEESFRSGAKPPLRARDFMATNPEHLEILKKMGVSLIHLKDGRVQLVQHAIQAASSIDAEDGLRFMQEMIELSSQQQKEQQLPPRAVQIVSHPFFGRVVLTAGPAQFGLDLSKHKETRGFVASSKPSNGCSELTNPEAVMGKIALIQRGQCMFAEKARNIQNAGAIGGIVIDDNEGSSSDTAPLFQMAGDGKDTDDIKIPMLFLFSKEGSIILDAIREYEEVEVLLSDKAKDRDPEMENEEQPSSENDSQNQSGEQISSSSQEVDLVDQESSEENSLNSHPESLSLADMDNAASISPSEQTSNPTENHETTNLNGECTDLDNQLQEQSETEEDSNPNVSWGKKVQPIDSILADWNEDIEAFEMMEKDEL

[1] = biological target: T2, MmEDEM3-HA, wild type (Mus musculus) (UniProt Q2HXL6)
T2 sequence: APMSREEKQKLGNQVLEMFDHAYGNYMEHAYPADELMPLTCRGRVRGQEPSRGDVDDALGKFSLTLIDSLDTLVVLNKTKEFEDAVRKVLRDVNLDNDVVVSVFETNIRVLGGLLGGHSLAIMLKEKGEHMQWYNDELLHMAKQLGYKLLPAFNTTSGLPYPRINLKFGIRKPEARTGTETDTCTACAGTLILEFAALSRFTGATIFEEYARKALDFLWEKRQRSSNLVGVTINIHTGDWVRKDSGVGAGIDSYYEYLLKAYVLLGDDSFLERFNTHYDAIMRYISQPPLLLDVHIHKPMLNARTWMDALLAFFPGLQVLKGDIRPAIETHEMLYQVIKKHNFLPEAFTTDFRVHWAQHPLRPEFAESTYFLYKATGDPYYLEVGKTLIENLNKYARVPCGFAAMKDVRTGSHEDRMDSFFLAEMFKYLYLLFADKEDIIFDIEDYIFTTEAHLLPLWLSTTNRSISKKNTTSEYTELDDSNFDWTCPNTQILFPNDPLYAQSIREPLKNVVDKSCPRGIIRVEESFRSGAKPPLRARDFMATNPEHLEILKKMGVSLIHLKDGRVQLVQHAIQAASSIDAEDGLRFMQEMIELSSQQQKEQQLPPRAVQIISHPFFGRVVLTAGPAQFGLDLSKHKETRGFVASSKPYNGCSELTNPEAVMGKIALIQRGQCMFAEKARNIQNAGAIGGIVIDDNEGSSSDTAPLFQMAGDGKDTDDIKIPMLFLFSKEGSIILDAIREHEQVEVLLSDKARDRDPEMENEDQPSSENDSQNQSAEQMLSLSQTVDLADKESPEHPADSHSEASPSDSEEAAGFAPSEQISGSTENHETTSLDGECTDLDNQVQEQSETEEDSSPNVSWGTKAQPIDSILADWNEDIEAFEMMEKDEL

[2] = biological target: T3, MmEDEM3-HA C529S (Mus musculus) (UniProt Q2HXL6)
T3 sequence: T2 sequence with C487S

[3] = biological target: T4, MmEDEM3-HA C529S/C558S (Mus musculus) (UniProt Q2HXL6)
T4 sequence: T2 sequence with C487S, C516S

[4] = biological target: T5, MmEDEM3-HA C558S (Mus musculus) (UniProt Q2HXL6)
T5 sequence: T2 sequence with C516S

Substance	binding (HsEDEM3 (human))	binding [1]	binding [2]	binding [3]	binding [4]
HsERp46-FLAG C92A/C353A double trapping mutant (from UniProt Q8NBS9 33-432) (enzyme)	binds	binds	–	–	–
HsERp46-FLAG C92A trapping mutant (from UniProt Q8NBS9 33-432) (enzyme)	binds	binds	–	–	–
HsERp46-FLAG C92A/C220A/C353A triple trapping mutant (from UniProt Q8NBS9 33-432) (enzyme)	–	–	binds	binds	–
HsERp46-FLAG C353A trapping mutant (from UniProt Q8NBS9 33-432) (enzyme)	binds	binds	–	–	–
HsERp46-FLAG, wild type (from UniProt Q8NBS9 33-432) (enzyme)	binds	binds	binds	binds	binds
